From article PMC5996148
Some of the results follow.

Legend:
Test in all cases: protein microarray (ProtoArray v5.0), streptavidin-Alexa Fluor 647
Settings in all cases: 3'-biotin; 20 mM Tris (pH 7.5), 5 mM MgCl2, 100 mM KCl, 0.1% Tween-20, A/T-rich and random oligonucleotide blockers; temperature not stated; high values mean tight binding
[1] = tested on: TEX13B (human)
[2] = tested on: TF (human)
[3] = tested on: TFF2 (human)
[4] = tested on: THEM5 (human)
[5] = tested on: THOC3 (human)
[6] = tested on: TICAM2 (human)
[7] = tested on: TIMM10 (human)
[8] = tested on: TIMM8A (human)
[9] = tested on: TIMM8B (human)
[10] = tested on: TIPIN (human)

Work on “GGTGACAGGGGTATGGGGAGGGG [G4-2 biotinylated (Ct1)]” yielded a binding signal [1] of -0.394 z-score, a binding signal [2] of -0.388 z-score and a binding signal [3] of -0.37 z-score. The binding signal [4] was -0.387 z-score, the binding signal [5] was -0.38 z-score and the binding signal [6] was -0.358 z-score. It also gave a binding signal [7] of -0.379 z-score, a binding signal [8] of -0.387 z-score and a binding signal [9] of -0.387 z-score. It also gave a binding signal [10] of -0.397 z-score.
